Test results taken from paper PMC3357558.

Target: ITK-Y511F, fluorescent protein chimera
Test: co-IP; Jurkat (JTag) cells transfected with GFP-ITK constructs, stimulated or not with 5 ug/mL anti-CD3e OKT3 cross-linked with rabbit anti-mouse IgG for 1 minute at 37°C, lysed; FP-ITK immunoprecipitated with anti-GFP IgG; SLP-76 and ITK immunoblotted; association index by densitometry against the nonstimulated lane

B1: SLP-76 (protein, UniProt Q13094 1-533)
chain: MALRNVPFRSEVLGWDPDSLADYFKKLNYKDCEKAVKKYHIDGARFLNLTENDIQKFPKLRVPILSKLSQEINKNEERRSIFTRKPQVPRFPEETESHEEDNGGWSSFEEDDYESPNDDQDGEDDGDYESPNEEEEAPVEDDADYEPPPSNDEEALQNSILPAKPFPNSNSMYIDRPPSGKTPQQPPVPPQRPMAALPPPPAGRNHSPLPPPQTNHEEPSRSRNHKTAKLPAPSIDRSTKPPLDRSLAPFDREPFTLGKKPPFSDKPSIPAGRSLGEHLPKIQKPPLPPTTERHERSSPLPGKKPPVPKHGWGPDRRENDEDDVHQRPLPQPALLPMSSNTFPSRSTKPSPMNPLPSSHMPGAFSESNSSFPQSASLPPYFSQGPSNRPPIRAEGRNFPLPLPNKPRPPSPAEEENSLNEEWYVSYITRPEAEAALRKINQDGTFLVRDSSKKTTTNPYVLMVLYKDKVYNIQIRYQKESQVYLLGTGLRGKEDFLSVSDIIDYFRKMPLLLIDGKNRGSRYQCTLTHAAGYP
**Q.** Which binding does the source give for B1 here?
**A.** The binding was “binds”.

These are yes or no findings as the source states them, for the method shown. In cells and extracts the contact can be indirect. Binding calls can cover weak binding; strength is not graded here.
